“Also recorded” adds a separate entry of the source. Part of at least one peptide drawing is inferred or uncertain, most often the ends. Ends that are not written are not given here.
What was measured:
[1] = test system: OVA specific IgE and mMCP1; experiment: Serum OVA specific IgE and mMCP1 ELISA, days 28 and 38 (Example 2); format: in vivo, Male BalbC mice
[2] = test system: OVA specific IgE and mMCP1; experiment: Serum OVA specific IgE and mMCP1 ELISA in the food allergy model (Example 1); format: in vivo, Male BalbC mice; details: 80 or 160 g/kg, three or six doses, day 28, three days after the last dose
[3] = test system: key Th2 cytokines/chemokines in the serum; experiment: Serum cytokine/chemokine magnetic multiplex assays in the food allergy model (Example 1); format: in vivo, Male BalbC mice; details: day 28; six doses of 80 g/kg and three doses of 160 g/kg (legend: 80 or 160 g/kg; three or six doses)
[4] = test system: ovalbumin-induced food allergy mouse model; experiment: Ovalbumin-induced food allergy mouse model, anaphylaxis clinical scoring and body temperature (Example 1); format: in vivo, Male BalbC mice; details: for severity of anaphylaxis (clinical scoring): over vehicle group exposed to OVA
[5] = test system: ovalbumin-induced food allergy mouse model; experiment: Ovalbumin-induced food allergy mouse model, clinical scoring and body temperature, days 28 and 38 (Example 2); format: in vivo, Male BalbC mice; details: for body temperature / symptom scores (clinical symptom scoring): 80 and 800 g/kg, six doses
[6] = test system: inflammation associated with the late phase response; details: previously shown; cited from earlier work
[7] = 80 μg/kg, i.v., six doses, day 38, 13 days after the last dose
[8] = 800 μg/kg, i.v., six doses, day 38, 13 days after the last dose
[9] = both doses (80 or 800 μg/kg, i.v.), day 28, three days after the last dose
[10] = 80 or 160 g/kg, three or six doses, day 28, three days after the last dose
[11] = day 28, three days after the last dose
[12] = day 38, 13 days after the last dose, without further dosing

## DGSVVVNKVSELPAGHGLNVNTLSYGDLAAD ['1104]
[1]; [7]
  OVA-specific IgE: significantly reduced
  mMCP-1 levels: significantly reduced
[1]; [8]
  OVA-specific IgE: only the higher dose reached statistical significance; also recorded: significantly reduced
  mMCP-1 levels: only the higher dose reached statistical significance; also recorded: significantly reduced
[1]; [9]
  OVA-specific IgE levels: significantly reduced
  mMCP-1 levels: significantly reduced
[2]
  OVA-specific immunoglobulin E (IgE): significantly reduced
  murine mast cell protease (mMCP-1): significantly reduced
[3]
  Eotaxin serum level: significantly reduced
  IL-4 serum level: significantly reduced
  IL-5 serum level: significantly reduced
  IL-13 serum level: significantly reduced
[4]; [10]
  body temperature: significantly reduced
  clinical scoring: significantly reduced
[4]; six doses of 80 g/kg i.v., at days 23, 25, and 28
  severity of anaphylaxis (clinical scoring): significantly reduced the severity of anaphylaxis
[4]; three doses of 80 g/kg i.v., at day 28
  severity of anaphylaxis (clinical scoring): significantly reduced the severity of anaphylaxis
[4]; three doses of 160 g/kg i.v., at days 25 and 28
  severity of anaphylaxis (clinical scoring): significantly reduced the severity of anaphylaxis
[5]; [11]
  body temperature: significantly improved; also recorded: significantly reduced
  symptom scores (clinical symptom scoring): significantly improved; also recorded: significantly reduced
[5]; [12]
  body temperature: beneficial effects were maintained; also recorded: significantly reduced
  symptom scores (clinical symptom scoring): beneficial effects were maintained; also recorded: significantly reduced
[5]; both doses (80 and 800 g/kg), 13 days after the last dose
  severity of anaphylaxis (clinical scoring): significantly decreasing the severity of anaphylaxis
[5]; six doses of 80 g/kg i.v., over vehicle group exposed to OVA, at days 23, 25, and 28
  severity of anaphylaxis (clinical scoring): significantly reduced the severity of anaphylaxis
[5]; six doses of 800 g/kg i.v., over vehicle group exposed to OVA, at days 23, 25, and 28
  severity of anaphylaxis (clinical scoring): significantly reduced the severity of anaphylaxis
[6]
  blocking the inflammation associated with the late phase response: very effective in blocking the inflammation associated with the late phase response

Reference: patent US20260115265A1, “METHODS AND COMPOSITIONS FOR PREVENTING OR TREATING FOOD ALLERGIES” (Revolo Biotherapeutics Limited, priority 2022, published 2026)
